Assay results from paper PMC8526623, “PHF3 regulates neuronal gene expression through the Pol II CTD reader domain SPOC” (Nature Communications, 2021).
These are yes or no findings as the source states them, for the method shown. In cells and extracts the contact can be indirect. Some results given as binding are weak or reduced against the parent protein; the word gives no strength.

Protein sequences, listed by entry. Tags and fused reporters are not part of them. Lines headed by an entry give the natural chain unless they say otherwise; changes in a name come on top.
UniProt Q92576: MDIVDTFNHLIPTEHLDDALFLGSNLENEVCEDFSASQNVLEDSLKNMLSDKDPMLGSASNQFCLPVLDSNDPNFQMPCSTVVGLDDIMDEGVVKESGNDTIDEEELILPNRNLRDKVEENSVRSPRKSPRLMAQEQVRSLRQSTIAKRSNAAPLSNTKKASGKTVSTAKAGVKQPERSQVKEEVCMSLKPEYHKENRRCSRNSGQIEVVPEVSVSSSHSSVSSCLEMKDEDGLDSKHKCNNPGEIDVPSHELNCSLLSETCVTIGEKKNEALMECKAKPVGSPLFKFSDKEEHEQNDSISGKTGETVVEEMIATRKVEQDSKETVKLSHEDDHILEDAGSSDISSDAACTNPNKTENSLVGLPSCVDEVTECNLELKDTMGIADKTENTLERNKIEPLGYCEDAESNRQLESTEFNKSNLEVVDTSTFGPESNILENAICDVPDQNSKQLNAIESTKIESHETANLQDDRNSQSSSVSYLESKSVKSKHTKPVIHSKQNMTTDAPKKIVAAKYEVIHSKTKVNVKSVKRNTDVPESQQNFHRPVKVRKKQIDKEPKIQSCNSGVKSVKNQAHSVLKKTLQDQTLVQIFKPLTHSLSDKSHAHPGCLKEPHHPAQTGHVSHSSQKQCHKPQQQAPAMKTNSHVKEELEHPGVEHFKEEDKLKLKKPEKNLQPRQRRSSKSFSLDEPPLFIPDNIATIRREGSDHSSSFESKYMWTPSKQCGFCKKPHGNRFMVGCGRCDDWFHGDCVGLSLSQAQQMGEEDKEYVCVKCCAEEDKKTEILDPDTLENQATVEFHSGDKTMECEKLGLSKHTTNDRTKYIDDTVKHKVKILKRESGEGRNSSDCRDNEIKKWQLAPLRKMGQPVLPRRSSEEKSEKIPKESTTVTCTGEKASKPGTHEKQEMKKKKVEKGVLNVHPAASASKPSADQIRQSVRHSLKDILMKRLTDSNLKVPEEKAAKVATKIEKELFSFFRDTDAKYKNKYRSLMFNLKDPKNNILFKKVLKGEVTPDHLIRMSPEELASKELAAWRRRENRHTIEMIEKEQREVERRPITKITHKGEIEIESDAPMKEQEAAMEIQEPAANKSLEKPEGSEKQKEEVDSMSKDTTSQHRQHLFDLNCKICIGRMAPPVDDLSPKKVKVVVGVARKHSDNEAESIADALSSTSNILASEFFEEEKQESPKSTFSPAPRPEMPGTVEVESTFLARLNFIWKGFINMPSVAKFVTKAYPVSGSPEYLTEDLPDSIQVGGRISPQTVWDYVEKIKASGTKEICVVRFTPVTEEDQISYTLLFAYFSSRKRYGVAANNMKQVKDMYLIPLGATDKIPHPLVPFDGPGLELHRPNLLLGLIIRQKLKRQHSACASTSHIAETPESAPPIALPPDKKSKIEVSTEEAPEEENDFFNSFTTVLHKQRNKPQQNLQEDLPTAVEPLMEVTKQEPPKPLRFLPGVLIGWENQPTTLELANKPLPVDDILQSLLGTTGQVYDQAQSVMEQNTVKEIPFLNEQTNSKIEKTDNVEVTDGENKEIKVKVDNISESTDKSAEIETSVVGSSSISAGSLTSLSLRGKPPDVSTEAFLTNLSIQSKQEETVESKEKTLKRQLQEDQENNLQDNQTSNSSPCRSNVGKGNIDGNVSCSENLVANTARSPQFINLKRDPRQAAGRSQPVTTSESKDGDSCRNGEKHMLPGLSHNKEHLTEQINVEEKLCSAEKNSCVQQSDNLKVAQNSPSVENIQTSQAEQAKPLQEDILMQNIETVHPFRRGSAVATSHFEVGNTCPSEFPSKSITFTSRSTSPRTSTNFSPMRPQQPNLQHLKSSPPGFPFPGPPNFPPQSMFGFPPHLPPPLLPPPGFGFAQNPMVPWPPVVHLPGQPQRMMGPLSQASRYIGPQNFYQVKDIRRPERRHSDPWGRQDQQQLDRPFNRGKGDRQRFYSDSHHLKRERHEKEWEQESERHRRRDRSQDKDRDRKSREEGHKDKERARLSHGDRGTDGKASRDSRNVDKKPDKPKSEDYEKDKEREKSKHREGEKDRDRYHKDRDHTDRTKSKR
UniProt Q9Y5B9: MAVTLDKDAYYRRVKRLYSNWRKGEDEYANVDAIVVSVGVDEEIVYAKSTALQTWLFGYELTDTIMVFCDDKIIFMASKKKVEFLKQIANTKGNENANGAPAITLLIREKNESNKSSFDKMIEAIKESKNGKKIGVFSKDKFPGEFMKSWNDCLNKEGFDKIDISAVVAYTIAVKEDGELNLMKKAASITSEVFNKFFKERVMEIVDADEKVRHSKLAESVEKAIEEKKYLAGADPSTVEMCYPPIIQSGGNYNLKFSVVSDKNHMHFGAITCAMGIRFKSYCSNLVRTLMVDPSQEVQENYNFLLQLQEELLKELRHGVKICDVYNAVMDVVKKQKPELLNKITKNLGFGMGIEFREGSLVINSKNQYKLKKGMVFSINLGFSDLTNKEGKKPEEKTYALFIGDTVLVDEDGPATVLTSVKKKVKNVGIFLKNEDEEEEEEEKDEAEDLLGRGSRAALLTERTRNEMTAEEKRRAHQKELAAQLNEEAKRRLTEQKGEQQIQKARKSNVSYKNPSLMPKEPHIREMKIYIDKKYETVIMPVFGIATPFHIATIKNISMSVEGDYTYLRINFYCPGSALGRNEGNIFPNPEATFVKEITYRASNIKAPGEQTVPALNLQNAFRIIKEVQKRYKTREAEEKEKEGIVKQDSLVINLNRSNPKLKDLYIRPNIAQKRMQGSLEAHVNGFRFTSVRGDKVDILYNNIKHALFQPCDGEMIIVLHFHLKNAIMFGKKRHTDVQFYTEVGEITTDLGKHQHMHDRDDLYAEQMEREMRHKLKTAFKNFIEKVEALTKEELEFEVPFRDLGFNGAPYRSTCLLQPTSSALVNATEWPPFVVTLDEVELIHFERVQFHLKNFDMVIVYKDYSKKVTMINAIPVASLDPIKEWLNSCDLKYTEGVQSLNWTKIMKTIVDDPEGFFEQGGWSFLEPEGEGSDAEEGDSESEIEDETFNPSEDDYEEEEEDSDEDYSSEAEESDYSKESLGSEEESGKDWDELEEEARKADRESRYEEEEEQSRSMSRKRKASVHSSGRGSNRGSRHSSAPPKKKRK

Target: PHF3-GFP (endogenous PHF3 tagged with GFP) (human (endogenous in HEK293T)) (UniProt Q92576)
Experiment: co-IP; endogenously tagged PHF3-GFP precipitated from HEK293T lysate with rabbit anti-GFP and protein G Dynabeads; partners detected by Western blot

binding: binds
Substance: FACT complex (SPT16 and SSRP1) (from UniProt Q9Y5B9 1-1047; Q08945 1-709)
